Experimental data published in patent US20140079722A1, “EXTRACELLULAR TARGETED DRUG CONJUGATES” (CENTROSE, LLC, priority 2011, published 2014).
No constants are given. Whether binding was seen depends on the method and setting. Some entries that bind do so weakly or less than the wild type.

Legend:
SEQ ID NO 4 (human) = target: T1, SEQ ID NO 4 (human); test: ELISA, BSA-peptide conjugate coated, M53 at 1 ug/mL
T1 sequence (peptide, C-terminal cysteine conjugated to maleimide activated BSA): MDIQVPTRAPDAVYC

SEQ ID NO 5 (human) = target: T2, SEQ ID NO 5 (human); test: as above
T2 sequence (peptide, C-terminal cysteine conjugated to maleimide activated BSA): APDAVYTELQPTSPC

B1: M53 antibody (antibody, V domains shown)
VH: EVQLVESGGGLVQPKGTLKLSCAASGFSFNTHAMNWVRQAPGKSLEWVARTMSKSNNYATYYADSVKDRFIIRADDSQSMLYLQMNNLKTEDTAMYYCVRDDPKRGMDYWGQGTSVTVSS
VL: GIVMSQSPSSLAVSVGEKVTMSCKPSQSLLYSRNQKIYLAWYQQKPGQSPKLLIYWASTRESGVPDRFTGSGSGTDFTLIISSVRAEDLAVYYCQQYYNYPLTFGAGTKLELKR
Question: With B1 as the binder, how does the binding (SEQ ID NO 4 (human)) read?
Answer: Its binding is “binds”.

Question: What about the binding (SEQ ID NO 5 (human)) of the same binder?
Answer: The binding was “binds”.
